According to the supplement of paper PMC12823440, “Inhibitors supercharge kinase turnover through native proteolytic circuits” (Nature, 2025):
Counter-ions that a name gives are not always drawn. Some of the results follow. Hit calls seldom repeat between salt and free forms of one compound.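 Kinases were expressed as nanoluciferase fusions in K562 cells and luminescence was read every 4 h between 2 and 18 h as percent of control, DMSO set to 100% and a positive control to 0%. A time point counts as decreased when the signal drops significantly (2 sigma). The hit call is the authors' own, does not follow from the count of time points alone, and its rule is not shown.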

By UniProt entry, the sequences of proteins in these tests, tags left out. Where a name states a change or a piece, a line headed by the entry shows the natural chain unless it says otherwise.
UniProt Q8IWU2: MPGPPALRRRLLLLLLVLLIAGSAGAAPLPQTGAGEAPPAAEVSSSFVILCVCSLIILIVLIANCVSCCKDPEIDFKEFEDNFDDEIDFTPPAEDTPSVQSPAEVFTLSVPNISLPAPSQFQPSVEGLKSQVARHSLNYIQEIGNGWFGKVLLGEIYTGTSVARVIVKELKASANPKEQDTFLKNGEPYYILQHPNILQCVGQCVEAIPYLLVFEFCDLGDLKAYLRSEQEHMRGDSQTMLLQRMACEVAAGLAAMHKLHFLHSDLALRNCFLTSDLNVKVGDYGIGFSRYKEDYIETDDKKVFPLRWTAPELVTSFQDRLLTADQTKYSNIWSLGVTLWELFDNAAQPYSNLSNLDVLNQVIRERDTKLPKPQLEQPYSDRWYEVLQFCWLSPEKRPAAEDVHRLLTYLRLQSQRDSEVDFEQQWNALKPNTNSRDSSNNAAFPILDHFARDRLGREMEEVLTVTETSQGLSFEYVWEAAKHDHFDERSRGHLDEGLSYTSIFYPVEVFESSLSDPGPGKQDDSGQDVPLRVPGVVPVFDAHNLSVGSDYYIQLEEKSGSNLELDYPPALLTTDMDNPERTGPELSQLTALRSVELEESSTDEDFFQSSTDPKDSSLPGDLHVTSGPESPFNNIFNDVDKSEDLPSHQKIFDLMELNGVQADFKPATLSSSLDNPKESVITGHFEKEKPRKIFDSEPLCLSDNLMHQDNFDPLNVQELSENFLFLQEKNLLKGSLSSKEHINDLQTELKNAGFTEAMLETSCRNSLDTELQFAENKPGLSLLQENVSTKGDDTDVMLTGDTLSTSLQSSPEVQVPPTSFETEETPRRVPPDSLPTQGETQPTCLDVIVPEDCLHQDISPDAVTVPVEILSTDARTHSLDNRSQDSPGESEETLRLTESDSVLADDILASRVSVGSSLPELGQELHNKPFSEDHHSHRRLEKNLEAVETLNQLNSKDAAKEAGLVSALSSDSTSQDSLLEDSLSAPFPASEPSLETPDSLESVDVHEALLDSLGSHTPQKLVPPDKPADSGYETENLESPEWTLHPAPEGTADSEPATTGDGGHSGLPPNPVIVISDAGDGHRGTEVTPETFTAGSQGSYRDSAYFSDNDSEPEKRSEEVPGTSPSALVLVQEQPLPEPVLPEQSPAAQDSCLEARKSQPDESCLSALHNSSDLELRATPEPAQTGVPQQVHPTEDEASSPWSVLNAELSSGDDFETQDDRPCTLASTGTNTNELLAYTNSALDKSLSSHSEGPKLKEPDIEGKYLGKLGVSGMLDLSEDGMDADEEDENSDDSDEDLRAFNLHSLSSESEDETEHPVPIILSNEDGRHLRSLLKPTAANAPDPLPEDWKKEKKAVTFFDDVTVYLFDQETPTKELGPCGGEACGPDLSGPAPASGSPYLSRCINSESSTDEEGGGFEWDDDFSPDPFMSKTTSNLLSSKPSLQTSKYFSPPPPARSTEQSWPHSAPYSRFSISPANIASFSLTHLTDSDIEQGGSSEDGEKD
UniProt P07948: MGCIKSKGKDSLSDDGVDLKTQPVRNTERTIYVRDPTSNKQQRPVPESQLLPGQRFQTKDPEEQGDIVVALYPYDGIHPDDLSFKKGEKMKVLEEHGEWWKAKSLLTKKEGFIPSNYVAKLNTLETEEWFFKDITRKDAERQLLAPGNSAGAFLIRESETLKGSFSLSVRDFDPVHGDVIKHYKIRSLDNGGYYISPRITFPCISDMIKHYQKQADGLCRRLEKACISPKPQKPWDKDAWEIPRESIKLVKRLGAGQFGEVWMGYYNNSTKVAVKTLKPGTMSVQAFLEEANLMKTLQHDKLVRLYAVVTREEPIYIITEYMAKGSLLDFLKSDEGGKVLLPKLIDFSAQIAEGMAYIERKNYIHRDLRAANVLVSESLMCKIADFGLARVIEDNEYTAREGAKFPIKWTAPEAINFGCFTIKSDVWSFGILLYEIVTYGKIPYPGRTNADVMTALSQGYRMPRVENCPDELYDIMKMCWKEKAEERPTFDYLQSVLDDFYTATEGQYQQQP
UniProt Q12851: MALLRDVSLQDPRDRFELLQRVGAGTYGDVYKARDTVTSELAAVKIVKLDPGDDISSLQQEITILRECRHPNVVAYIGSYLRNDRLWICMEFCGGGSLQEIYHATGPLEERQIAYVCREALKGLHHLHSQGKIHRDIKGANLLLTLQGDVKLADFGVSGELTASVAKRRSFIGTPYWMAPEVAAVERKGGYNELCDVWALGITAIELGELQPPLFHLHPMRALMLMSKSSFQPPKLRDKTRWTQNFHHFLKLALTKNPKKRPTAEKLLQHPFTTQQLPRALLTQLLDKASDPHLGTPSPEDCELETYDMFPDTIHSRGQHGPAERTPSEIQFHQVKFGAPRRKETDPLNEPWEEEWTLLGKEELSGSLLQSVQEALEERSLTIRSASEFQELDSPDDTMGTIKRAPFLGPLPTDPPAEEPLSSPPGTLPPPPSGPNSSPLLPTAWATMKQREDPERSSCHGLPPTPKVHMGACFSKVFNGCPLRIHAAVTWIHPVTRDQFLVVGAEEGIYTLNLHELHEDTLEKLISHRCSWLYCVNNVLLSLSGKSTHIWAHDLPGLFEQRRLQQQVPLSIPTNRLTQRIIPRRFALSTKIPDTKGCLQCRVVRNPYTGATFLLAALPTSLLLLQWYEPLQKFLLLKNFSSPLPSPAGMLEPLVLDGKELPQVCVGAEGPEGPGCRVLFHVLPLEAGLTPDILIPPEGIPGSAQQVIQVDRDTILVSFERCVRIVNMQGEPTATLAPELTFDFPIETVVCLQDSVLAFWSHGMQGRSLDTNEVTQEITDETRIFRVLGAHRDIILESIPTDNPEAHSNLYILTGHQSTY
UniProt P28482, whole entry: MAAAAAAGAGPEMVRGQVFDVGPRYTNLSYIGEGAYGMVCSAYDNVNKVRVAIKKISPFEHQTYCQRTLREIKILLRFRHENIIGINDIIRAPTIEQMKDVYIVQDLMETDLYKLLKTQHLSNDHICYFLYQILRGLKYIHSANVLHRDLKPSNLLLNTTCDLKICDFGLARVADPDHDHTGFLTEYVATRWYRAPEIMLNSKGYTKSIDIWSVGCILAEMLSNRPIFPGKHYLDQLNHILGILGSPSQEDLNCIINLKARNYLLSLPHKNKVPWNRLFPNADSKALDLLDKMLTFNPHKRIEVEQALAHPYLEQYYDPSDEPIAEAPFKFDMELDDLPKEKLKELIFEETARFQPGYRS
UniProt P31152, whole entry: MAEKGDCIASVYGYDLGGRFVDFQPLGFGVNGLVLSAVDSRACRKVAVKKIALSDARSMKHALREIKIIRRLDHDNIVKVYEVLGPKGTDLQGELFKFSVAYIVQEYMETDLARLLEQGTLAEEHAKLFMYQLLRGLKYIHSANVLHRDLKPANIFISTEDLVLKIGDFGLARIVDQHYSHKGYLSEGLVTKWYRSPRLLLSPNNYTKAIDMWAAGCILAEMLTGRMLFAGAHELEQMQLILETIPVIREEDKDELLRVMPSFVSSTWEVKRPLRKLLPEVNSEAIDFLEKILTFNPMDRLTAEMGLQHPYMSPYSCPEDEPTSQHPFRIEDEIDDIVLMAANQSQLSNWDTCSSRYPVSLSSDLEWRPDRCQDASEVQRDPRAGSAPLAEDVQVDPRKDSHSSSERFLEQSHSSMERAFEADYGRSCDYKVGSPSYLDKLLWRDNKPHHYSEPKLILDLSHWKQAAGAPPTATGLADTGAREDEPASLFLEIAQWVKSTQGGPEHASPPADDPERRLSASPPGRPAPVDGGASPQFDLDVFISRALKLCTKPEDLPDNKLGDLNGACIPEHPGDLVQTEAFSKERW
UniProt P49137, whole entry, looked up: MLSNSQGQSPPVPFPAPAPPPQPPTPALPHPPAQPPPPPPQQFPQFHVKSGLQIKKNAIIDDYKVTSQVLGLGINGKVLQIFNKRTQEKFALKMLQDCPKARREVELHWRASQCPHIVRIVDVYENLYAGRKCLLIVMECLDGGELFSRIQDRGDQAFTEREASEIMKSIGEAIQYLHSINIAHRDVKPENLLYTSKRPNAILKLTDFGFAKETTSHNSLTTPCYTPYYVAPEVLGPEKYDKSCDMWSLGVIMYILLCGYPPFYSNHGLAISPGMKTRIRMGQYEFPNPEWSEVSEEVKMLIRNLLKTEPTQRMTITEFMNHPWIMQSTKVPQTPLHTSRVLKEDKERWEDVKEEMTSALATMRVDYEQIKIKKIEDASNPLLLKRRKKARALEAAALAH
UniProt Q9BUB5: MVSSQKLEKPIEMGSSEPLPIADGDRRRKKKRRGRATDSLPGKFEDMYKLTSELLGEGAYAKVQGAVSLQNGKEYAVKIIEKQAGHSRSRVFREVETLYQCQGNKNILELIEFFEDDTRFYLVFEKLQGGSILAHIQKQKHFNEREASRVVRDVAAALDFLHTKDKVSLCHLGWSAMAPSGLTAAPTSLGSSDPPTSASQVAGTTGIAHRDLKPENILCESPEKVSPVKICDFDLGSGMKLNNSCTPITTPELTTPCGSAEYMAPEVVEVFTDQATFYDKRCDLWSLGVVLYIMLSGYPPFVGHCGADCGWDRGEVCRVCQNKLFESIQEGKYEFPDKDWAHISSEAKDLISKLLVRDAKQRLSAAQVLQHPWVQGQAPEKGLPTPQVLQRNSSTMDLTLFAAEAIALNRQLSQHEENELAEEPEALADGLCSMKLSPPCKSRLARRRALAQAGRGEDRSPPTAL
UniProt Q16620, whole entry, looked up: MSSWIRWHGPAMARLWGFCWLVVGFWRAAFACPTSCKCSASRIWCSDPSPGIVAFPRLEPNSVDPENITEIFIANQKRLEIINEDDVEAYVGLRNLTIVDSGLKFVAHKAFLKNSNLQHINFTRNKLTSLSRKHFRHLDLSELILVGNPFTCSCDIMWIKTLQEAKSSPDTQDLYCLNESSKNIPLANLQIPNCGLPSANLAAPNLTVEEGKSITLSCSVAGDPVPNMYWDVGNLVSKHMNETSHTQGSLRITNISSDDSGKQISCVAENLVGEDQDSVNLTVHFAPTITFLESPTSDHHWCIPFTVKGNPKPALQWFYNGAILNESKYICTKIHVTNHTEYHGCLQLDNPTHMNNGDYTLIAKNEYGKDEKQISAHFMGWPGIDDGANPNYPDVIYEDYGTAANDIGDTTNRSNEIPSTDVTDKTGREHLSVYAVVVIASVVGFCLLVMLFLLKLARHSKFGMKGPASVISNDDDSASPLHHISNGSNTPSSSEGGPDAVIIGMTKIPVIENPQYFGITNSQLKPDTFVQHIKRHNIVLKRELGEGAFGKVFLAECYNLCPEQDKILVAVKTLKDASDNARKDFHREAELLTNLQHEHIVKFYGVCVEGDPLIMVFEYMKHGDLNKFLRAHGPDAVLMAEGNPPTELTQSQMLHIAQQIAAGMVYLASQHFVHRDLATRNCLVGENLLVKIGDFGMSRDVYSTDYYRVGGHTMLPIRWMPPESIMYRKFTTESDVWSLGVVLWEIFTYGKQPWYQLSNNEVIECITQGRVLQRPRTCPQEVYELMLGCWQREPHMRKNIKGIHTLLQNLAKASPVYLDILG

Columns and labels:
Test in all cases: number of time points (of 5) at which kinase-Nluc abundance scored as decreased, DMSO-normalised (count); higher = more persistent destabilization
Conditions in all cases: K562; 2-18 h
[1] = target: LMTK2 (UniProt Q8IWU2)
[2] = target: LYN (UniProt P07948)
[3] = target: MAP2K1 (UniProt Q02750)
[4] = target: MAP2K2 (UniProt P36507)
[5] = target: MAP4K2 (UniProt Q12851)
[6] = target: MAPK1 (UniProt P28482)
[7] = target: MAPK4 (UniProt P31152)
[8] = target: MAPKAPK2 (UniProt P49137)
[9] = target: MKNK1 (UniProt Q9BUB5)
[10] = target: NTRK2 (UniProt Q16620)

Row | Structure (SMILES) | number of time points [1] | number of time points [2] | number of time points [3] | number of time points [4] | number of time points [5] | number of time points [6] | number of time points [7] | number of time points [8] | number of time points [9] | number of time points [10]
1 | CC(C)n1ncnc1-c1cn2c(n1)-c1ccc(O[C@@H](C)C(N)=O)cc1OCC2 (10 µM) | 0 | 0 | 0 | 0 | 0 | 0 | 0 | 0 | 0 | 0
2 | NC[C@@](O)(c1ccc(Cl)cc1)c1ccc(-c2cn[nH]c2)cc1 (10 µM) | 0 | 0 | 0 | 0 | 0 | 0 | 0 | 0 | 0 | 0
3 | COc1cc(-c2oc3cc(O)cc(O)c3c(=O)c2O)ccc1O [Isorhamnetin] (10 µM) | 0 | 0 | 0 | 0 | 0 | 0 | 0 | 0 | 0 | 0
4 | CNC(=O)CNc1cnc2ccc(-c3ccc(OC)c(OC)c3)cc2n1 (10 µM) | 0 | 0 | 0 | 0 | 0 | 0 | 0 | 0 | 0 | 0
5 | COc1cc2ncnc(Nc3cccc(I)c3)c2cc1OC (2.5 µM) | 0 | 0 | 0 | 0 | 0 | 0 | 0 | 0 | 0 | 0
6 | c1ccc(Cn2c(-c3ccc(OC[C@H](C4CCNCC4)n4c(-c5ccccc5)nc5ccccc54)cc3)nc3ccccc32)cc1 [Deltarasin] (2.5 µM) | 0 | 0 | 0 | 0 | 0 | 0 | 0 | 0 | 0 | 0
7 | NS(=O)(=O)c1ccc(Nc2nc(-c3cccc(-c4ccccc4)c3)c3[nH]cnc3n2)cc1 (10 µM) | 0 | 0 | 0 | 0 | 0 | 0 | 0 | 0 | 0 | 0
8 | COc1ccc(-c2cc(=O)c3c(OC)cc(OC)c(OC)c3o2)cc1 [6-Demethoxytangeretin] (10 µM) | 0 | 0 | 0 | 0 | 0 | 0 | 0 | 0 | 0 | 0
9 | CNC(=O)c1cc2c(Oc3ccc(NC(=O)C4(C(=O)Nc5ccc(F)cc5)CC4)cc3)ccnc2cc1OC (2.5 µM) | 0 | 0 | 0 | 0 | 0 | 0 | 0 | 1 | 2 | 1
10 | CN1CCN(c2ccc(Nc3ncc4cc(C#N)c(=O)n(C5CCCC5)c4n3)cc2)CC1 (10 µM) | 0 | 0 | 0 | 0 | 0 | 0 | 0 | 0 | 0 | 0
11 | CCCCCC(=O)N[C@@H](Cc1ccc(O)cc1)C(=O)OC (10 µM) | 0 | 0 | 0 | 0 | 0 | 0 | 0 | 0 | 0 | 0
12 | O=C(Nc1cccnc1)c1cc(-c2ccnc(F)c2)ccc1OCc1ccccc1 (10 µM) | 0 | 0 | 0 | 0 | 0 | 0 | 0 | 0 | 0 | 0
13 | N#Cc1ccc(-c2cnc3[nH]cc(NC(=O)c4cccnc4)c3c2)cc1 (10 µM) | 0 | 0 | 0 | 0 | 0 | 0 | 0 | 0 | 0 | 0
14 | Cc1ccc(-n2nc(C(C)(C)C)cc2NC(=O)Nc2ccc(OCCN3CCOCC3)cc2)cc1 (10 µM) | 0 | 0 | 0 | 0 | 0 | 0 | 0 | 0 | 0 | 0
15 | CCN(CC)CCCC(C)Nc1nc(C)cc(Nc2ccc3nc(C)cc(N)c3c2)n1 (stereo not given) (10 µM) | 0 | 0 | 0 | 0 | 0 | 0 | 0 | 0 | 0 | 0
16 | Cc1cc(C(=O)NC(C)(C)C)cc(C#Cc2ccc3c4c(oc3c2)C(C)(C)c2cc(NS(C)(=O)=O)ccc2C4=O)n1 (10 µM) | 0 | 0 | 0 | 0 | 0 | 0 | 0 | 0 | 0 | 0
17 | NCC1CCC(CNc2nc(NCc3ccccc3OC(F)(F)F)ncc2[N+](=O)[O-])CC1 (stereo not given) [PKC-theta inhibitor] (10 µM) | 1 | 0 | 0 | 0 | 0 | 0 | 0 | 0 | 2 | 3
18 | Cc1cccc(/C=N/Nc2cc(N3CCOCC3)n3nc(-c4ccncc4)cc3n2)c1 (10 µM) | 0 | 0 | 0 | 0 | 0 | 0 | 0 | 0 | 0 | 0

Row | Structure (SMILES) | number of time points [1] | number of time points [2] | number of time points [3] | number of time points [4] | number of time points [5] | number of time points [6] | number of time points [7] | number of time points [8] | number of time points [9] | number of time points [10]
19 | CCN(CC)CCOc1ccc(Nc2nc(-c3ccccc3NC(=O)CCN3CCN(C)CC3)nc3ccccc23)cc1 (2.5 µM) | 0 | 0 | 0 | 0 | 0 | 0 | 0 | 0 | 0 | 0
20 | CC1CN(CC2CCN(Cc3ccccc3)CC2)C(=O)N(c2cccc(C(=N)N)c2)C1 (stereo not given) (10 µM) | 0 | 0 | 0 | 0 | 0 | 0 | 0 | 0 | 0 | 0
21 | Nc1nccc(-c2c(-c3ccc(F)cc3)ncn2C2CCCCC2)n1 (10 µM) | 0 | 0 | 0 | 0 | 0 | 0 | 0 | 0 | 2 | 0
22 | O=C(Nc1cccc(-c2nc(-c3ccc(NC(=O)c4cccnc4)cc3Cl)no2)c1)Nc1ccc(NC(=O)C2CC2)c(C(F)(F)F)c1 (2.5 µM) | 0 | 0 | 0 | 0 | 0 | 0 | 0 | 0 | 0 | 0
23 | C=C1C(=O)[C@@]23[C@H](O)C[C@@H]4C(C)(C)C(=O)CC[C@@]4(C)[C@@H]2CC[C@@H]1[C@H]3O [Glaucocalyxin A] (2.5 µM) | 0 | 0 | 0 | 0 | 0 | 0 | 0 | 0 | 0 | 0
24 | COc1cc2ncnc(Nc3ccc(O)c(Br)c3)c2cc1OC (10 µM) | 0 | 0 | 0 | 0 | 0 | 0 | 0 | 0 | 0 | 0
25 | CC(Sc1nc2c(cnn2-c2cccc(Cl)c2)c(=O)[nH]1)C(N)=O (stereo not given) (10 µM) | 0 | 0 | 0 | 0 | 0 | 0 | 0 | 0 | 0 | 0
26 | O=C(Nc1ccc(Cl)cc1)C1CCCN(C(=O)c2cc(C(F)(F)F)cc(C(F)(F)F)c2)C1 (stereo not given) (10 µM) | 0 | 0 | 0 | 0 | 0 | 0 | 0 | 0 | 0 | 0
27 | COC(=O)Nc1ccc(-c2nc(N3CCOCC3)c3cnn(C4CCN(Cc5cccnc5)CC4)c3n2)cc1 (10 µM) | 0 | 0 | 0 | 0 | 0 | 0 | 0 | 0 | 0 | 0
28 | Cc1cnc(NC(=O)c2cc(Oc3cnc(C(=O)N(C)C)nc3)c3cc(C)oc3c2)cn1 (10 µM) | 0 | 0 | 0 | 0 | 0 | 0 | 0 | 0 | 0 | 0
29 | O=C1NC(=O)/C(=C\c2c[nH]c(=O)c(-c3ccc(N4CCNCC4)nc3)c2)S1 [Protein kinase inhibitors 1 hydrochloride] (10 µM) | 0 | 0 | 0 | 0 | 0 | 0 | 0 | 0 | 0 | 0
30 | C=CC(=O)Nc1cc(Nc2nccc(-c3cn(C)c4ccccc34)n2)c(OC)cc1N(C)CCNC [AZ7550 Mesylate] (2.5 µM) | 0 | 0 | 0 | 0 | 0 | 0 | 0 | 0 | 1 | 0
31 | Oc1c(F)cc(-c2cnccc2-c2ccc(N3CCOCC3)cc2)cc1F (10 µM) | 0 | 0 | 0 | 0 | 0 | 0 | 0 | 0 | 0 | 0
32 | C[C@H]1O[C@@H](O[C@H]2CC[C@@]3(C)[C@@H](CC[C@]4(C)[C@@H]3C=C[C@]35OC[C@@]6(CCC(C)(C)C[C@H]63)[C@H](O)C[C@]54C)[C@]2(C)CO)[C@H](O)[C@@H](O[C@@H]2O[C@H](CO)[C@@H](O)[C@H](O)[C@H]2O)[C@H]1O [Saikosaponin D] (2.5 µM) | 0 | 0 | 0 | 0 | 0 | 0 | 0 | 0 | 0 | 0
33 | CC(C)n1c([C@H](C)Nc2ncnc(N)c2C#N)cc2cccc(-c3ccc(=O)n(C)c3)c2c1=O (10 µM) | 0 | 0 | 0 | 0 | 0 | 0 | 0 | 0 | 0 | 0
34 | C=CC(=O)N1CCN(C(=O)CNc2cc(I)c(Cl)cc2O)CC1 [K-Ras(G12C) inhibitor 12] (10 µM) | 0 | 0 | 0 | 0 | 0 | 0 | 0 | 0 | 0 | 0
35 | COC(=O)[C@H](CCSC)NC(=O)c1ccc(NC[C@@H](N)CS)cc1-c1ccccc1 [FTI-277 (hydrochloride)] (10 µM) | 0 | 0 | 0 | 0 | 0 | 0 | 0 | 0 | 0 | 0
36 | C#Cc1cccc(Nc2ncnc3cc(OC)c(NC(=O)N4C[C@H]5CCN(C)[C@H]5C4)cc23)c1 [Theliatinib] (10 µM) | 0 | 0 | 0 | 0 | 0 | 0 | 0 | 0 | 0 | 0

Shown as a markdown table: entries from further up.

| Row | Structure (SMILES) | number of time points [1] | number of time points [2] | number of time points [3] | number of time points [4] | number of time points [5] | number of time points [6] | number of time points [7] | number of time points [8] | number of time points [9] | number of time points [10] |
| --- | --- | --- | --- | --- | --- | --- | --- | --- | --- | --- | --- |
| 33 | CC(C)n1c([C@H](C)Nc2ncnc(N)c2C#N)cc2cccc(-c3ccc(=O)n(C)c3)c2c1=O (10 µM) | 0 | 0 | 0 | 0 | 0 | 0 | 0 | 0 | 0 | 0 |
| 34 | C=CC(=O)N1CCN(C(=O)CNc2cc(I)c(Cl)cc2O)CC1 [K-Ras(G12C) inhibitor 12] (10 µM) | 0 | 0 | 0 | 0 | 0 | 0 | 0 | 0 | 0 | 0 |
| 35 | COC(=O)[C@H](CCSC)NC(=O)c1ccc(NC[C@@H](N)CS)cc1-c1ccccc1 [FTI-277 (hydrochloride)] (10 µM) | 0 | 0 | 0 | 0 | 0 | 0 | 0 | 0 | 0 | 0 |
